# Measured values as given in the supplement of paper PMC10032668.
# Chains of the proteins cited; added tags and fusions are not shown.
# EIF3K, Q9UBQ5, UniProt Q9UBQ5, whole entry: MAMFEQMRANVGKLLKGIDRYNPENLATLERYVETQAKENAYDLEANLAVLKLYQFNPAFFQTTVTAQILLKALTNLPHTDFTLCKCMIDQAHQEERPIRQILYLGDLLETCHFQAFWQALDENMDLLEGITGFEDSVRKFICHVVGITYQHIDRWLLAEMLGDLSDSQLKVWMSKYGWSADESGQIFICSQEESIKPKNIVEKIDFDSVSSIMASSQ
# GNAI2, P04899, UniProt P04899, whole entry: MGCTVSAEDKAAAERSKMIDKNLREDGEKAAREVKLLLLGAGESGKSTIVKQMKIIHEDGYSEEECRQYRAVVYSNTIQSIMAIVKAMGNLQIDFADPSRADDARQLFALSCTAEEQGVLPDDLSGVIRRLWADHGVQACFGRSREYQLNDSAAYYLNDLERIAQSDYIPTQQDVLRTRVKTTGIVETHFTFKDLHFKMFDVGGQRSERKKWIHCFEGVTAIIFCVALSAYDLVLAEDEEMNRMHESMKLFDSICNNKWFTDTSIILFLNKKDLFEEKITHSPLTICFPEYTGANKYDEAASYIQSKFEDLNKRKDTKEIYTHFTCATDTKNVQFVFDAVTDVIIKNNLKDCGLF
# MSN, P26038, UniProt P26038, whole entry: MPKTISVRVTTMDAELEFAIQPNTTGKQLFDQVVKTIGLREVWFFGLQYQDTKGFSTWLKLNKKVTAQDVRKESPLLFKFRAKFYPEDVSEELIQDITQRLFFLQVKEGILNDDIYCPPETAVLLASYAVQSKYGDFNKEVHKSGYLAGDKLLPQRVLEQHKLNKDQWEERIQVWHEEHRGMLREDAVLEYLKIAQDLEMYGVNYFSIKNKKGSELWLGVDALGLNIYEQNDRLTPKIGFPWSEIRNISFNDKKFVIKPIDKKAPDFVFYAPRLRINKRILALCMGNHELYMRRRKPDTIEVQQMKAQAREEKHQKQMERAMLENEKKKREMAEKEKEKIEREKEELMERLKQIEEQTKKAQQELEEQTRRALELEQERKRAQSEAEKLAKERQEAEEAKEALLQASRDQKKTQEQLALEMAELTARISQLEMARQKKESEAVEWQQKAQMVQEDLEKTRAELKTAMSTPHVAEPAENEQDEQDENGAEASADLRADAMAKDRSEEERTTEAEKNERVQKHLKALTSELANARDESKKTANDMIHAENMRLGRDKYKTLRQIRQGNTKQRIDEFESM
# NUP153, P49790, UniProt P49790, whole entry: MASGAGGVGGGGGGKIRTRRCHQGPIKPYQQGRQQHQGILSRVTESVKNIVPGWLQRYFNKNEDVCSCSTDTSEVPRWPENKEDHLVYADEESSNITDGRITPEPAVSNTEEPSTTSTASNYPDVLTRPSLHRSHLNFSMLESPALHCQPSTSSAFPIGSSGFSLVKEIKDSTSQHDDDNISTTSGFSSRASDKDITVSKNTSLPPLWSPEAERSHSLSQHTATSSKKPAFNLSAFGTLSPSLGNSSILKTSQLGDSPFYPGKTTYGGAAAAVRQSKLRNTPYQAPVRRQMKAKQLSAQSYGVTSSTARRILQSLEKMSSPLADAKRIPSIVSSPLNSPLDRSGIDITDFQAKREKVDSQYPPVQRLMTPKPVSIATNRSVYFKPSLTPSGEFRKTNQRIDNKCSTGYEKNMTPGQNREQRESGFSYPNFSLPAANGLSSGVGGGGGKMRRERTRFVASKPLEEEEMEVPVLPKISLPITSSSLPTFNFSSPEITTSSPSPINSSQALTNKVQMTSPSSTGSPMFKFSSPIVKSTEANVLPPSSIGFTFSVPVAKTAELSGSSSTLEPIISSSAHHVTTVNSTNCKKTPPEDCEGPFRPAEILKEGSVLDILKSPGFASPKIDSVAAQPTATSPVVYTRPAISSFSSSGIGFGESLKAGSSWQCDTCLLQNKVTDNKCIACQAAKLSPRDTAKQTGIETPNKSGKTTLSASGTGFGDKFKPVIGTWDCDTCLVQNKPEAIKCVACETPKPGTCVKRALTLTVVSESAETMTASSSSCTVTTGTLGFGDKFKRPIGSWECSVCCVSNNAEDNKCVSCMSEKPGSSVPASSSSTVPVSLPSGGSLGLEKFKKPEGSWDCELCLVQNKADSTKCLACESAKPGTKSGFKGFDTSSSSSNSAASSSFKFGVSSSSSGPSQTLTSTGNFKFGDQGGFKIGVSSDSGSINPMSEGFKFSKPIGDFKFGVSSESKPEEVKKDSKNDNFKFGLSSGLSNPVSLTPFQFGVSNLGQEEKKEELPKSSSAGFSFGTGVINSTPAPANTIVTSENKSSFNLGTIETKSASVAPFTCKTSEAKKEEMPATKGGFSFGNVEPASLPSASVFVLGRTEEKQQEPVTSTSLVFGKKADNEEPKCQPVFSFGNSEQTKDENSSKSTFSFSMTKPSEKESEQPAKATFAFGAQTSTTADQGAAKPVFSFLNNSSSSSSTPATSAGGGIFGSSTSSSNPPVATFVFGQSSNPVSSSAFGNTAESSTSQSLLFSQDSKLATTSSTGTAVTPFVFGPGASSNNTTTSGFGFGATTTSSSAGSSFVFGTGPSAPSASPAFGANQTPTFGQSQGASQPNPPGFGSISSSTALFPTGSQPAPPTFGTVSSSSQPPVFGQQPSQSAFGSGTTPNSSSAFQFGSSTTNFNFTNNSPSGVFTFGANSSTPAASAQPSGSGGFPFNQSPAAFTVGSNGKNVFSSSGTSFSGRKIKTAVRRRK
# PDIA3, P30101, UniProt P30101, whole entry: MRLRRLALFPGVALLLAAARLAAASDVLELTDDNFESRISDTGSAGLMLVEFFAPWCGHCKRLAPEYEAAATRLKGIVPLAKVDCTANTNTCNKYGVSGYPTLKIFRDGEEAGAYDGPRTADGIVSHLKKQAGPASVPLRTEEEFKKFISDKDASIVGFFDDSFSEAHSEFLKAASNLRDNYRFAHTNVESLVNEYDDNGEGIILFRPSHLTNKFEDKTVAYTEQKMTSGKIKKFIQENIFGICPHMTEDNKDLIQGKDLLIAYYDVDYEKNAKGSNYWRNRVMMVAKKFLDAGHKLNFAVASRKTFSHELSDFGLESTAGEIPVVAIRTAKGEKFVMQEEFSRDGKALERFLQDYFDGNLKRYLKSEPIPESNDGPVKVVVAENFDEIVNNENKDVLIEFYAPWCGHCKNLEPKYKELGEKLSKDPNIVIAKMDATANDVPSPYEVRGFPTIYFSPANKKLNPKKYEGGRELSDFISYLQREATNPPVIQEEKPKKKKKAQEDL
# PFN2, P35080, UniProt P35080, whole entry: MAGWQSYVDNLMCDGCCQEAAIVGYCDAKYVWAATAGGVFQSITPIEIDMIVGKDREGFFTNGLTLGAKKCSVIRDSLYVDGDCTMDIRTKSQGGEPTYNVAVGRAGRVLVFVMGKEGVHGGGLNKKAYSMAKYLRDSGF
# TUBB2B, Q9BVA1, UniProt Q9BVA1, whole entry: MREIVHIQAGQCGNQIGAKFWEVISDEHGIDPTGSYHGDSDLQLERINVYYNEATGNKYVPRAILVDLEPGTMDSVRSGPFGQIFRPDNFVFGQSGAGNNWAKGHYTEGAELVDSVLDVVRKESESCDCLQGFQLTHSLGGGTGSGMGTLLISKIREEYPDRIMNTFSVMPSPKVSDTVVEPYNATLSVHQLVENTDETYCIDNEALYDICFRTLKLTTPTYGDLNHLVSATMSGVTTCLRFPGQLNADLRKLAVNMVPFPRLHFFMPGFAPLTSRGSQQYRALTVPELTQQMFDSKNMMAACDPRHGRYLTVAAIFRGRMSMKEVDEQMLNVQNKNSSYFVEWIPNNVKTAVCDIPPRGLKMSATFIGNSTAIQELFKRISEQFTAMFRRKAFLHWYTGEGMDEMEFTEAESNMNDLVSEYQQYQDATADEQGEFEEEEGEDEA
# TPX2, Q9ULW0, UniProt Q9ULW0, whole entry: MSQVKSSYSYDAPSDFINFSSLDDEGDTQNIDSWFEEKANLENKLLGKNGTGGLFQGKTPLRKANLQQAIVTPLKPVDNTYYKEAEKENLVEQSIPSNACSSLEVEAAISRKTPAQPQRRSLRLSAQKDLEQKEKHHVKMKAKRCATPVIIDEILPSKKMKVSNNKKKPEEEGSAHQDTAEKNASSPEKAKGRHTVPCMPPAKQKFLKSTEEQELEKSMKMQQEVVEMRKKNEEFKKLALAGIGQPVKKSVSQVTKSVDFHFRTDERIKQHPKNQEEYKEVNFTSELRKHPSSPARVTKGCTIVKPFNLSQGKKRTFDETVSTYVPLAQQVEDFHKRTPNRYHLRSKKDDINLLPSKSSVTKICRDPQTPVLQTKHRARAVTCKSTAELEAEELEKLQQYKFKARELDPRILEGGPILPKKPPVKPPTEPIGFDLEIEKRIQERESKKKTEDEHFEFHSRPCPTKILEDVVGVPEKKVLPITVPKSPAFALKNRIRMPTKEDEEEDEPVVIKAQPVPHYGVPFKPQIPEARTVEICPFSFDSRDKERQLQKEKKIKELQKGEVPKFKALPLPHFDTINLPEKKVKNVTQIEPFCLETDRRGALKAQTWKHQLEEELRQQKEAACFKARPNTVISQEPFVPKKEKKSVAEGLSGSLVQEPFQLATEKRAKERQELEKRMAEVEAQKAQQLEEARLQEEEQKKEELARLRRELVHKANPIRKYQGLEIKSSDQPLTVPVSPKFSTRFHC
# UFM1, P61960, UniProt P61960, whole entry: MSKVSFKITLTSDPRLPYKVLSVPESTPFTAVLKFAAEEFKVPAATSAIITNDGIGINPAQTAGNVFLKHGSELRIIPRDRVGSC
# ACTBL2, Q562R1, UniProt Q562R1, whole entry: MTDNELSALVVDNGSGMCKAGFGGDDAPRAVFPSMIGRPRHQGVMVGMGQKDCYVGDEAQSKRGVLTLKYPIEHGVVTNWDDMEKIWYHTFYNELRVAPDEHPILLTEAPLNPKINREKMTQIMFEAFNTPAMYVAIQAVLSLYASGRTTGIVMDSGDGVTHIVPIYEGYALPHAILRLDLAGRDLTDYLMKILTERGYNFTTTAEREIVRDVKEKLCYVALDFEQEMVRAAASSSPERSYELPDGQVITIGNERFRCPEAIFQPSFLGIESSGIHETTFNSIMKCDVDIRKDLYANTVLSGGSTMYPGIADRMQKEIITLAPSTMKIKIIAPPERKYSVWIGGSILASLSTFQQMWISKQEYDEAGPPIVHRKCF
# CD2AP, Q9Y5K6, UniProt Q9Y5K6, whole entry: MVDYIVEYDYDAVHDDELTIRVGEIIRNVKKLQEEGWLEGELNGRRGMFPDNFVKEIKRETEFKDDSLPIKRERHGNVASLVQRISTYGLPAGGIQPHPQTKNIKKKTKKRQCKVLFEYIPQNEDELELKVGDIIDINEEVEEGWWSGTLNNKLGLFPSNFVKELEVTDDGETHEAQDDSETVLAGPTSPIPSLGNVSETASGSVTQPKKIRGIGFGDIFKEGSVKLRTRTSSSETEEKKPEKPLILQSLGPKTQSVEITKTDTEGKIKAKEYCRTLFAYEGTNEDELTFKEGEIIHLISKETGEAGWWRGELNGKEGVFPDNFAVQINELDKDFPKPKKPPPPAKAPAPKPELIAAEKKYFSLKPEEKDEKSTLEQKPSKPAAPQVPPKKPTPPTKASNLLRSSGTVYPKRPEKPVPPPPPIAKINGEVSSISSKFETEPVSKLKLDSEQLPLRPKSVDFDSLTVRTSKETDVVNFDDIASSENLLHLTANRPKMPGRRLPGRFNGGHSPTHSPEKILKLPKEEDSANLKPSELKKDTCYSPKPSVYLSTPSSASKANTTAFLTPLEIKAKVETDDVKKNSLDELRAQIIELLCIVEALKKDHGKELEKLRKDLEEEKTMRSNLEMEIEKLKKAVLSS
# NDUFB5, O43674, UniProt O43674, whole entry: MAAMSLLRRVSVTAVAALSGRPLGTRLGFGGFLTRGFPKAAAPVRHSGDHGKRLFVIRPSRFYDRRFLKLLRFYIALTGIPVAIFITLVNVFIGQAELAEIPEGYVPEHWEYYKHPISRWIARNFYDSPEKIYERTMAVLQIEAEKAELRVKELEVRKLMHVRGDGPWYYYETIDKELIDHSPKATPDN
# The other results are listed elsewhere or left out. The list holds hits alone, and they repeat only in part.
# B1: ATF2 (peptide)
# chain: MAHQLESILAMRKRM
# B2: RCBTB2 (peptide)
# chain: MTEYWVPEI
# B3: TNPO3 (peptide)
# chain: MAPVRERPWPRQ
# Columns and labels:
# Assay in all cases: PRISMA enrichment of interactor (LFQ) in peptide spot vs all other peptide spots (log2 fold change); higher = stronger / more specific binding of the interactor to the peptide
# [1] = target: ACACA, Q13085
# Experimental: (§1)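 PRISMA: 221 full-length sORF-encoded peptides (3-15 aa), plus SOS1/GLUT1 control peptides, were spot-synthesized on cellulose membranes in triplicate. Membranes were incubated with HEK293T lysate, and bound proteins were identified by LC-MS/MS with LFQ. Enrichment is the log2 fold change versus all other peptide spots; only significant interactors are listed (cutoff c=6, x0=2.8).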
# [2] = target: BLM, P54132
# Experimental: as §1
# [3] = target: EIF3K, Q9UBQ5
# Experimental: as §1
# [4] = target: FYTTD1, Q96QD9
# Experimental: as §1
# [5] = target: GNAI2, P04899
# Experimental: as §1
# [6] = target: MSN, P26038
# Experimental: as §1
# [7] = target: NUP153, P49790
# Experimental: as §1
# [8] = target: PDCD10, Q9BUL8
# Experimental: as §1
# [9] = target: PDIA3, P30101
# Experimental: as §1
# [10] = target: PFN2, P35080
# Experimental: as §1
# [11] = target: POLDIP2, Q9Y2S7
# Experimental: as §1
# [12] = target: POP7, O75817
# Experimental: as §1
# [13] = target: RAB14, P61106
# Experimental: as §1
# [14] = target: RPP38, P78345
# Experimental: as §1
# [15] = target: SDF4, Q9BRK5
# Experimental: as §1
# [16] = target: TUBB2B, Q9BVA1
# Experimental: as §1
# [17] = target: ZC3H15, Q8WU90
# Experimental: as §1
# [18] = target: SNW1, Q13573
# Experimental: as §1
# [19] = target: SSBP1, Q04837
# Experimental: as §1
# [20] = target: THYN1, Q9P016
# Experimental: as §1
# [21] = target: TIA1, P31483
# Experimental: as §1
# [22] = target: TOMM34, Q15785
# Experimental: as §1
# [23] = target: TPX2, Q9ULW0
# Experimental: as §1
# [24] = target: TRPT1, Q86TN4
# Experimental: as §1
# [25] = target: UFM1, P61960
# Experimental: as §1
# [26] = target: UTP11, Q9Y3A2
# Experimental: as §1
# [27] = target: UTP15, Q8TED0
# Experimental: as §1
# [28] = target: VRK1, Q99986
# Experimental: as §1
# [29] = target: VRK2, Q86Y07
# Experimental: as §1
# [30] = target: YRDC, Q86U90
# Experimental: as §1
# [31] = target: ZC2HC1A, Q96GY0
# Experimental: as §1
# [32] = target: ZC3HAV1L, Q96H79
# Experimental: as §1
# [33] = target: ZNF207, O43670
# Experimental: as §1
# [34] = target: ZNF512, Q96ME7
# Experimental: as §1
# [35] = target: ZNF593, O00488
# Experimental: as §1
# [36] = target: ZNF638, Q14966
# Experimental: as §1
# [37] = target: ZNF706, Q9Y5V0
# Experimental: as §1
# [38] = target: ZNF768, Q9H5H4
# Experimental: as §1
# [39] = target: ACTBL2, Q562R1
# Experimental: as §1
# [40] = target: ARHGAP1, Q07960
# Experimental: as §1
# [41] = target: BRAT1, Q6PJG6
# Experimental: as §1
# [42] = target: CD2AP, Q9Y5K6
# Experimental: as §1
# [43] = target: NDUFB5, O43674
# Experimental: as §1
# [44] = target: NUBP2, Q9Y5Y2
# Experimental: as §1
# [45] = target: REPIN1, Q9BWE0
# Experimental: as §1
# [46] = target: TGM2, P21980
# Experimental: as §1
# [47] = target: TRMU, O75648
# Experimental: as §1
binder,measurement,setting,value
B1,PRISMA enrichment of interactor (log2),[1],4.29
same,PRISMA enrichment of interactor (log2),[2],7.13
same,PRISMA enrichment of interactor (log2),[3],5.75
same,PRISMA enrichment of interactor (log2),[4],5.74
same,PRISMA enrichment of interactor (log2),[5],5.73
same,PRISMA enrichment of interactor (log2),[6],4.87
same,PRISMA enrichment of interactor (log2),[7],5.21
same,PRISMA enrichment of interactor (log2),[8],4.55
same,PRISMA enrichment of interactor (log2),[9],7.56
same,PRISMA enrichment of interactor (log2),[10],5.82
same,PRISMA enrichment of interactor (log2),[11],7
same,PRISMA enrichment of interactor (log2),[12],4.15
same,PRISMA enrichment of interactor (log2),[13],6.94
same,PRISMA enrichment of interactor (log2),[14],4.49
same,PRISMA enrichment of interactor (log2),[15],6.62
same,PRISMA enrichment of interactor (log2),[16],7.67
same,PRISMA enrichment of interactor (log2),[17],5.07
B2,PRISMA enrichment of interactor (log2),[18],5.86
same,PRISMA enrichment of interactor (log2),[19],5.73
same,PRISMA enrichment of interactor (log2),[20],5.07
same,PRISMA enrichment of interactor (log2),[21],5.14
same,PRISMA enrichment of interactor (log2),[22],6.48
same,PRISMA enrichment of interactor (log2),[23],7.22
same,PRISMA enrichment of interactor (log2),[24],4.89
same,PRISMA enrichment of interactor (log2),[25],4.47
same,PRISMA enrichment of interactor (log2),[26],4.97
same,PRISMA enrichment of interactor (log2),[27],5.34
same,PRISMA enrichment of interactor (log2),[28],4.3
same,PRISMA enrichment of interactor (log2),[29],3.86
same,PRISMA enrichment of interactor (log2),[30],4.27
same,PRISMA enrichment of interactor (log2),[31],5.51
same,PRISMA enrichment of interactor (log2),[32],4.08
same,PRISMA enrichment of interactor (log2),[33],4.37
same,PRISMA enrichment of interactor (log2),[34],5.71
same,PRISMA enrichment of interactor (log2),[35],4.2
same,PRISMA enrichment of interactor (log2),[36],6.5
same,PRISMA enrichment of interactor (log2),[37],4.18
same,PRISMA enrichment of interactor (log2),[38],6.49
B3,PRISMA enrichment of interactor (log2),[39],7.41
same,PRISMA enrichment of interactor (log2),[40],4.28
same,PRISMA enrichment of interactor (log2),[41],7.02
same,PRISMA enrichment of interactor (log2),[42],7.38
same,PRISMA enrichment of interactor (log2),[43],6.25
same,PRISMA enrichment of interactor (log2),[44],8.91
same,PRISMA enrichment of interactor (log2),[45],4.71
same,PRISMA enrichment of interactor (log2),[14],4.83
same,PRISMA enrichment of interactor (log2),[46],6.97
same,PRISMA enrichment of interactor (log2),[47],3.8

# Random excerpt: 2 records from the list
binder,measurement,setting,value
B1,PRISMA enrichment of interactor (log2),[7],5.21
B3,PRISMA enrichment of interactor (log2),[45],4.71
